In paper PMC12989817:
Results are given in words; binding and its absence hold for the method and conditions named. Binding seen in cells or lysates may run through a third protein. Here binding means that the protein was enriched with, or labelled near, the bait; the list need not be complete.

Protein sequences, listed by entry. Tags and fused reporters are not part of them.
UniProt O43707: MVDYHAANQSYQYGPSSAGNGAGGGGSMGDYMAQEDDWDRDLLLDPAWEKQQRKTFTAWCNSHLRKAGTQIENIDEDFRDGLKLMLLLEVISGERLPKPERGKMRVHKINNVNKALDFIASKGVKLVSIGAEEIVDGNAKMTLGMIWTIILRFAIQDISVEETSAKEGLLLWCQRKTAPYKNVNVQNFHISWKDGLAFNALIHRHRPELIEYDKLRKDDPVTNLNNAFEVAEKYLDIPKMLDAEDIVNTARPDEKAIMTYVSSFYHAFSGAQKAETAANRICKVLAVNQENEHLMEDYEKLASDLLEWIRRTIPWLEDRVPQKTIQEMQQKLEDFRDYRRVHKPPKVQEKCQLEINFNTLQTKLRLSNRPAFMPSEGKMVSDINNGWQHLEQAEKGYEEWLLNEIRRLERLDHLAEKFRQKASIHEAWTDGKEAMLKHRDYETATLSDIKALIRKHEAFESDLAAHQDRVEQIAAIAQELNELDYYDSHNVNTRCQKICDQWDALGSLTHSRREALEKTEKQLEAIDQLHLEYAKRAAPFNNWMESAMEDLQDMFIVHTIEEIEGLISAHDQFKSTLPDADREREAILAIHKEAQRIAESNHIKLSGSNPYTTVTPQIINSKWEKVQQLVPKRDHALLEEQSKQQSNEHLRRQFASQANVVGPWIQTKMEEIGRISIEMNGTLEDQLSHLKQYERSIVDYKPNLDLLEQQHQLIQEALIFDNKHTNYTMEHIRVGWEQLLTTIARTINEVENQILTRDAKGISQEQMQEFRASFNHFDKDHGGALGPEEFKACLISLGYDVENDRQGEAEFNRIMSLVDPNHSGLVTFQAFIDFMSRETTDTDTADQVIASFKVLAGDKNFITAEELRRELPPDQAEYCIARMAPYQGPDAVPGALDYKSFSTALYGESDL
UniProt P10415: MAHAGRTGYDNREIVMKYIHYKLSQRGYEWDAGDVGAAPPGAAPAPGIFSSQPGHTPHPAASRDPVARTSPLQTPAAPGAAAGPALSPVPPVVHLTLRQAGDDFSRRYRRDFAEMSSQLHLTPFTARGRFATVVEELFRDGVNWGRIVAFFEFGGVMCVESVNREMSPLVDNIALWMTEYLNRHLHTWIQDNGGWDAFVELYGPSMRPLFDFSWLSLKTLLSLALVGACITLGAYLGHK
UniProt O00571: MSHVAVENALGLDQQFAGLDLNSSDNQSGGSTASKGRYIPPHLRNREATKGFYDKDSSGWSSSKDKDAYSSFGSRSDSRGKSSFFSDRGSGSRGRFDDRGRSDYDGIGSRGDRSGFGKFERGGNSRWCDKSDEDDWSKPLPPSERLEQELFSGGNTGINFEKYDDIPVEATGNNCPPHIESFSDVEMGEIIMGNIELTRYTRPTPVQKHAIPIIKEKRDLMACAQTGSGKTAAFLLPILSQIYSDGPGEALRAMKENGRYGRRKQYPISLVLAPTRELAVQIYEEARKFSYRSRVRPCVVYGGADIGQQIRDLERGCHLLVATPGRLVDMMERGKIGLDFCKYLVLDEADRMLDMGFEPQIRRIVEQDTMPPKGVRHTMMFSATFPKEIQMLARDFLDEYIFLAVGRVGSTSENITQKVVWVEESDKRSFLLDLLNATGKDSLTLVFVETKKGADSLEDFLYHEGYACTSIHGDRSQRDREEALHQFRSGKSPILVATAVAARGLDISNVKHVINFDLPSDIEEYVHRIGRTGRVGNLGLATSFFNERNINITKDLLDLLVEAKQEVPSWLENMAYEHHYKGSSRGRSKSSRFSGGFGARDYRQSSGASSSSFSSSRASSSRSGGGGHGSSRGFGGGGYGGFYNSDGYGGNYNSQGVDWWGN
UniProt O00410: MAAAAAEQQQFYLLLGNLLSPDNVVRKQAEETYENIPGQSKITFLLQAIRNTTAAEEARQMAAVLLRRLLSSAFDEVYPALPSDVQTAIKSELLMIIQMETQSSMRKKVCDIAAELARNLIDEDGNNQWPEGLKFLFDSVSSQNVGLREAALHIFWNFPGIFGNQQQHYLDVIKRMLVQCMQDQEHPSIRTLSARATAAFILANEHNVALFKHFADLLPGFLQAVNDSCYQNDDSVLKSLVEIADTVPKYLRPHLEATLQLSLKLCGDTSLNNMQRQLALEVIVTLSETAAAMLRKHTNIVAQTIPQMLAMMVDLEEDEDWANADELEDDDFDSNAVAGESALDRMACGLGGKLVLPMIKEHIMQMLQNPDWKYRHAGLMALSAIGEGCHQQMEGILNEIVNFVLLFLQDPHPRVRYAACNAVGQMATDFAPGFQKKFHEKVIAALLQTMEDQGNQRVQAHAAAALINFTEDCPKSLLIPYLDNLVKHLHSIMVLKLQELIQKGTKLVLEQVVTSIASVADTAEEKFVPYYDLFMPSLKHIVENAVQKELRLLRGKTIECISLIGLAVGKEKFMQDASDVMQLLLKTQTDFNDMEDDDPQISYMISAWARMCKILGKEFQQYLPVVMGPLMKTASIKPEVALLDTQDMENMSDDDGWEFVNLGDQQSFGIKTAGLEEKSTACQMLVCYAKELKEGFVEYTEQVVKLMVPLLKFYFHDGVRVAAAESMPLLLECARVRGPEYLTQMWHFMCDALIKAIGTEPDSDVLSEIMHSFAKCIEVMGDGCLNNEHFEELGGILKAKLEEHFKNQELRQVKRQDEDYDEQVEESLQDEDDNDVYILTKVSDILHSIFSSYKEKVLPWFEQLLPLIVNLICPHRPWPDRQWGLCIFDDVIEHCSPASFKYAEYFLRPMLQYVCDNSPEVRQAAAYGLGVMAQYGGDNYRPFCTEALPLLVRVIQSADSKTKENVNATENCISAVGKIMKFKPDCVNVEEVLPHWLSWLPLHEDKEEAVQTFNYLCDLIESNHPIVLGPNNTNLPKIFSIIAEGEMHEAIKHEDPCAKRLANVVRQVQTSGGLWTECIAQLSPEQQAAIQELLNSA
UniProt O95251: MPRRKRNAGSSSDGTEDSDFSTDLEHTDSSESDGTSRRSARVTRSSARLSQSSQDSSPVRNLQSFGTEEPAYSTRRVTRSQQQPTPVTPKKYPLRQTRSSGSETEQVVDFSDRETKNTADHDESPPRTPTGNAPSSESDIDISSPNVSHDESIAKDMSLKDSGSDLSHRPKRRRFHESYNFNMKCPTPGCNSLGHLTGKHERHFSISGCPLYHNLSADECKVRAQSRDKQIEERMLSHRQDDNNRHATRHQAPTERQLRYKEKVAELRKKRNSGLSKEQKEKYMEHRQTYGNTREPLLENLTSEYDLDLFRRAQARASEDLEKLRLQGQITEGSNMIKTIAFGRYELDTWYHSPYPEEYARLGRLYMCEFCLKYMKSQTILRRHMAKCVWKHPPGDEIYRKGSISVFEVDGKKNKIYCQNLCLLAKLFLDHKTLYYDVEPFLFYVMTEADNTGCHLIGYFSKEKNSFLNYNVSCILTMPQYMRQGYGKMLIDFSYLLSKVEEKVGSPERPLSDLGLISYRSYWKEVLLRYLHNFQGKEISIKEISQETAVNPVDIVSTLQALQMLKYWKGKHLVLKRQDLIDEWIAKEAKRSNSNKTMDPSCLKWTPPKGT
UniProt O00629: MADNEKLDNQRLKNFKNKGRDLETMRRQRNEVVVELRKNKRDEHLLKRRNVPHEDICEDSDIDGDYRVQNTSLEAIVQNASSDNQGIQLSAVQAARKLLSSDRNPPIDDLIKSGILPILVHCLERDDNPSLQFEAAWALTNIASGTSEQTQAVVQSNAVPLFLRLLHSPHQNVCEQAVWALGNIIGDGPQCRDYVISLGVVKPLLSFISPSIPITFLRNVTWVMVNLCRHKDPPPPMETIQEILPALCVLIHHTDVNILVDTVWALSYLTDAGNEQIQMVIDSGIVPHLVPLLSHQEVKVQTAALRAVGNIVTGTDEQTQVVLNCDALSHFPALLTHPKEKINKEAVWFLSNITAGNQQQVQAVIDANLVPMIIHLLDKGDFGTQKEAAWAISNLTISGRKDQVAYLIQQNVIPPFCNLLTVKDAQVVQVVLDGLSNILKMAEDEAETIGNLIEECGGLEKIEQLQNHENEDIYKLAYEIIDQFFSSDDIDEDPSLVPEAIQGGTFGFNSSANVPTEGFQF

B1: TBC1D10B (protein, UniProt Q4KMP7 1-808)
chain: METGTAPLVAPPRRHGAPAAPSPPPRGSRAGPVVVVAPGPPVTTATSAPVTLVAPGEARPAWVPGSAETSAPAPAPAPAPAPAVTGSTVVVLTLEASPEAPKPQLPSGPESPEPAAVAGVETSRALAAGADSPKTEEARPSPAPGPGTPTGTPTRTPSRTAPGALTAKPPLAPKPGTTVASGVTARSASGQVTGGHGAAAATSASAGQAPEDPSGPGTGPSGTCEAPVAVVTVTPAPEPAENSQDLGSTSSLGPGISGPRGQAPDTLSYLDSVSLMSGTLESLADDVSSMGSDSEINGLALRKTDKYGFLGGSQYSGSLESSIPVDVARQRELKWLDMFSNWDKWLSRRFQKVKLRCRKGIPSSLRAKAWQYLSNSKELLEQNPGKFEELERAPGDPKWLDVIEKDLHRQFPFHEMFAARGGHGQQDLYRILKAYTIYRPDEGYCQAQAPVAAVLLMHMPAEQAFWCLVQICDKYLPGYYSAGLEAIQLDGEIFFALLRRASPLAHRHLRRQRIDPVLYMTEWFMCIFARTLPWASVLRVWDMFFCEGVKIIFRVALVLLRHTLGSVEKLRSCQGMYETMEQLRNLPQQCMQEDFLVHEVTNLPVTEALIERENAAQLKKWRETRGELQYRPSRRLHGSRAIHEERRRQQPPLGPSSSLLSLPGLKSRGSRAAGGAPSPPPPVRRASAGPAPGPVVTAEGLHPSLPSPTGNSTPLGSSKETRKQEKERQKQEKERQKQEKEREKERQKQEKEREKQEKEREKQEKERQKQEKKAQGRKLSLRRKADGPPGPHDGGDRPSAEARQDAYF
B2: LZTS1 (protein, UniProt Q9Y250 1-596)
chain: MGSVSSLISGHSFHSKHCRASQYKLRKSSHLKKLNRYSDGLLRFGFSQDSGHGKSSSKMGKSEDFFYIKVSQKARGSHHPDYTALSSGDLGGQAGVDFDPSTPPKLMPFSNQLEMGSEKGAVRPTAFKPVLPRSGAILHSSPESASHQLHPAPPDKPKEQELKPGLCSGALSDSGRNSMSSLPTHSTSSSYQLDPLVTPVGPTSRFGGSAHNITQGIVLQDSNMMSLKALSFSDGGSKLGHSNKADKGPSCVRSPISTDECSIQELEQKLLEREGALQKLQRSFEEKELASSLAYEERPRRCRDELEGPEPKGGNKLKQASQKSQRAQQVLHLQVLQLQQEKRQLRQELESLMKEQDLLETKLRSYEREKTSFGPALEETQWEVCQKSGEISLLKQQLKESQTEVNAKASEILGLKAQLKDTRGKLEGLELRTQDLEGALRTKGLELEVCENELQRKKNEAELLREKVNLLEQELQELRAQAALARDMGPPTFPEDVPALQRELERLRAELREERQGHDQMSSGFQHERLVWKEEKEKVIQYQKQLQQSYVAMYQRNQRLEKALQQLARGDSAGEPLEVDLEGADIPYEDIIATEI
B3: SIRT2 (protein, UniProt Q8IXJ6 1-389)
chain: MAEPDPSHPLETQAGKVQEAQDSDSDSEGGAAGGEADMDFLRNLFSQTLSLGSQKERLLDELTLEGVARYMQSERCRRVICLVGAGISTSAGIPDFRSPSTGLYDNLEKYHLPYPEAIFEISYFKKHPEPFFALAKELYPGQFKPTICHYFMRLLKDKGLLLRCYTQNIDTLERIAGLEQEDLVEAHGTFYTSHCVSASCRHEYPLSWMKEKIFSEVTPKCEDCQSLVKPDIVFFGESLPARFFSCMQSDFLKVDLLLVMGTSLQVQPFASLISKAPLSTPRLLINKEKAGQSDPFLGMIMGLGGGMDFDSKKAYRDVAWLGECDQGCLALAELLGWKKELEDLVRREHASIDAQSGAGVPNPSTSASPKKSPPPAKDEARTTEREKPQ
B4: NUMBL (protein, UniProt Q9Y6R0 1-609)
chain: MSRSAAASGGPRRPERHLPPAPCGAPGPPETCRTEPDGAGTMNKLRQSLRRRKPAYVPEASRPHQWQADEDAVRKGTCSFPVRYLGHVEVEESRGMHVCEDAVKKLKAMGRKSVKSVLWVSADGLRVVDDKTKDLLVDQTIEKVSFCAPDRNLDKAFSYICRDGTTRRWICHCFLALKDSGERLSHAVGCAFAACLERKQRREKECGVTAAFDASRTSFAREGSFRLSGGGRPAEREAPDKKKAEAAAAPTVAPGPAQPGHVSPTPATTSPGEKGEAGTPVAAGTTAAAIPRRHAPLEQLVRQGSFRGFPALSQKNSPFKRQLSLRLNELPSTLQRRTDFQVKGTVPEMEPPGAGDSDSINALCTQISSSFASAGAPAPGPPPATTGTSAWGEPSVPPAAAFQPGHKRTPSEAERWLEEVSQVAKAQQQQQQQQQQQQQQQQQQQQAASVAPVPTMPPALQPFPAPVGPFDAAPAQVAVFLPPPHMQPPFVPAYPGLGYPPMPRVPVVGITPSQMVANAFCSAAQLQPQPATLLGKAGAFPPPAIPSAPGSQARPRPNGAPWPPEPAPAPAPELDPFEAQWAALEGKATVEKPSNPFSGDLQKTFEIEL
B5: NUMB (protein, UniProt P49757 1-651)
chain: MNKLRQSFRRKKDVYVPEASRPHQWQTDEEGVRTGKCSFPVKYLGHVEVDESRGMHICEDAVKRLKAERKFFKGFFGKTGKKAVKAVLWVSADGLRVVDEKTKDLIVDQTIEKVSFCAPDRNFDRAFSYICRDGTTRRWICHCFMAVKDTGERLSHAVGCAFAACLERKQKREKECGVTATFDASRTTFTREGSFRVTTATEQAEREEIMKQMQDAKKAETDKIVVGSSVAPGNTAPSPSSPTSPTSDATTSLEMNNPHAIPRRHAPIEQLARQGSFRGFPALSQKMSPFKRQLSLRINELPSTMQRKTDFPIKNAVPEVEGEAESISSLCSQITNAFSTPEDPFSSAPMTKPVTVVAPQSPTFQANGTDSAFHVLAKPAHTALAPVAMPVRETNPWAHAPDAANKEIAATCSGTEWGQSSGAASPGLFQAGHRRTPSEADRWLEEVSKSVRAQQPQASAAPLQPVLQPPPPTAISQPASPFQGNAFLTSQPVPVGVVPALQPAFVPAQSYPVANGMPYPAPNVPVVGITPSQMVANVFGTAGHPQAAHPHQSPSLVRQQTFPHYEASSATTSPFFKPPAQHLNGSAAFNGVDDGRLASADRHTEVPTGTCPVDPFEAQWAALENKSKQRTNPSPTNPFSSDLQKTFEIEL
B6: FGD6 (protein, UniProt Q6ZV73 1-1430)
chain: MTSAAEIKKPPVAPKPKFVVANNKPAPPPIAPKPDIVISSVPQSTKKMKPAIAPKPKVLKTSPVREIGQSPSRKIMLNLEGHKQELAESTDNFNCKYEGNQSNDYISPMCSCSSECIHKLGHRENLCVKQLVLEPLEMNENLENSKIDETLTIKTRSKCDLYGEKAKNQGGVVLKASVLEEELKDALIHQMPPFISAQKHRPTDSPEMNGGCNSNGQFRIEFADLSPSPSSFEKVPDHHSCHLQLPSDECEHFETCQDDSEKSNNCFQSSELEALENGKRSTLISSDGVSKKSEVKDLGPLEIHLVPYTPKFPTPKPRKTRTARLLRQKCVDTPSESTEEPGNSDSSSSCLTENSLKINKISVLHQNVLCKQEQVDKMKLGNKSELNMESNSDAQDLVNSQKAMCNETTSFEKMAPSFDKDSNLSSDSTTVDGSSMSLAVDEGTGFIRCTVSMSLPKQLKLTCNEHLQSGRNLGVSAPQMQKESVIKEENSLRIVPKKPQRHSLPATGVLKKAASEELLEKSSYPSSEEKSSEKSLERNHLQHLCAQNRGVSSSFDMPKRASEKPVWKLPHPILPFSGNPEFLKSVTVSSNSEPSTALTKPRAKSLSAMDVEKCTKPCKDSTKKNSFKKLLSMKLSICFMKSDFQKFWSKSSQLGDTTTGHLSSGEQKGIESDWQGLLVGEEKRSKPIKAYSTENYSLESQKKRKKSRGQTSAANGLRAESLDDQMLSRESSSQAPYKSVTSLCAPEYENIRHYEEIPEYENLPFIMAIRKTQELEWQNSSSMEDADANVYEVEEPYEAPDGQLQLGPRHQHSSSGASQEEQNDLGLGDLPSDEEEIINSSDEDDVSSESSKGEPDPLEDKQDEDNGMKSKVHHIAKEIMSSEKVFVDVLKLLHIDFRDAVAHASRQLGKPVIEDRILNQILYYLPQLYELNRDLLKELEERMLHWTEQQRIADIFVKKGPYLKMYSTYIKEFDKNIALLDEQCKKNPGFAAVVREFEMSPRCANLALKHYLLKPVQRIPQYRLLLTDYLKNLIEDAGDYRDTQDALAVVIEVANHANDTMKQGDNFQKLMQIQYSLNGHHEIVQPGRVFLKEGILMKLSRKVMQPRMFFLFNDALLYTTPVQSGMYKLNNMLSLAGMKVRKPTQEAYQNELKIESVERSFILSASSATERDEWLEAISRAIEEYAKKRITFCPSRSLDEADSENKEEVSPLGSKAPIWIPDTRATMCMICTSEFTLTWRRHHCRACGKIVCQACSSNKYGLDYLKNQPARVCEHCFQELQKLDHQHSPRIGSPGNHKSPSSALSSVLHSIPSGRKQKKIPAALKEVSANTEDSSMSGYLYRSKGNKKPWKHFWFVIKNKVLYTYAASEDVAALESQPLLGFTVIQVKDENSESKVFQLLHKNMLFYVFKAEDAHSAQKWIEAFQEGTIL
B7: PLEKHA7 (protein, UniProt Q6IQ23 1-1121)
chain: MAAATVGRDTLPEHWSYGVCRDGRVFFINDQLRCTTWLHPRTGEPVNSGHMIRSDLPRGWEEGFTEEGASYFIDHNQQTTAFRHPVTGQFSPENSEFILQEEPNPHMSKQDRNQRPSSMVSETSTAGTASTLEAKPGPKIIKSSSKVHSFGKRDQAIRRNPNVPVVVRGWLHKQDSSGMRLWKRRWFVLADYCLFYYKDSREEAVLGSIPLPSYVISPVAPEDRISRKYSFKAVHTGMRALIYNSSTAGSQAEQSGMRTYYFSADTQEDMNAWVRAMNQAAQVLSRSSLKRDMEKVERQAVPQANHTESCHECGRVGPGHTRDCPHRGHDDIVNFERQEQEGEQYRSQRDPLEGKRDRSKARSPYSPAEEDALFMDLPTGPRGQQAQPQRAEKNGMLPASYGPGEQNGTGGYQRAFPPRTNPEKHSQRKSNLAQVEHWARAQKGDSRSLPLDQTLPRQGPGQSLSFPENYQTLPKSTRHPSGGSSPPPRNLPSDYKYAQDRASHLKMSSEERRAHRDGTVWQLYEWQQRQQFRHGSPTAPICLGSPEFTDQGRSRSMLEVPRSISVPPSPSDIPPPGPPRVFPPRRPHTPAERVTVKPPDQRRSVDISLGDSPRRARGHAVKNSSHVDRRSMPSMGYMTHTVSAPSLHGKSADDTYLQLKKDLEYLDLKMTGRDLLKDRSLKPVKIAESDTDVKLSIFCEQDRVLQDLEDKIRALKENKDQLESVLEVLHRQMEQYRDQPQHLEKIAYQQKLLQEDLVHIRAELSRESTEMENAWNEYLKLENDVEQLKQTLQEQHRRAFFFQEKSQIQKDLWRIEDVTAGLSANKENFRILVESVKNPERKTVPLFPHPPVPSLSTSESKPPPQPSPPTSPVRTPLEVRLFPQLQTYVPYRPHPPQLRKVTSPLQSPTKAKPKVEDEAPPRPPLPELYSPEDQPPAVPPLPREATIIRHTSVRGLKRQSDERKRDRELGQCVNGDSRVELRSYVSEPELATLSGDMAQPSLGLVGPESRYQTLPGRGLSGSTSRLQQSSTIAPYVTLRRGLNAESSKATFPRPKSALERLYSGDHQRGKMSAEEQLERMKRHQKALVRERKRTLGQGERTGLPSSRYLSRPLPGDLGSVC

The molecules below were run against C-terminal Kv1.3-TurboID (Kv1.3-V5-TurboID fusion) (human) (UniProt P22001) (assay: proximity labelling; TurboID fused to Kv1.3, stably expressed in Jurkat T-cells; 200 μM biotin for 1 h; lysis in 8 M urea; biotinylated proteins enriched on streptavidin magnetic beads; label-free quantitative MS against untransduced Jurkat T-cells or between lines (>4-fold, p<0.05; n=3)).

| binding | Molecule |
| --- | --- |
| binds | B1 |
| binds | B2 |
| binds | B3 |
| binds | B4 |
| binds | B5 |
| binds | B6 |
| binds | B7 |

Each molecule was assayed against N-terminal Kv1.3-TurboID (V5-TurboID-Kv1.3 fusion) (human) (UniProt P22001) in the same assay as above.

| binding | Molecule |
| --- | --- |
| binds | ACTN4 (from UniProt O43707 1-911) |
| binds | BCL2 (from UniProt P10415 1-239) |
| binds | DDX3X (from UniProt O00571 1-662) |
| binds | IMPDH2 (from UniProt P12268 1-514) |
| binds | IPO5 (from UniProt O00410 1-1097) |
| binds | KAT7 (from UniProt O95251 1-611) |
| binds | KPNA4 (from UniProt O00629 1-521) |
